{"source": "PubChem BioAssay AID1259424 (University of Nebraska Medical Center, 2018)", "screen": "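Find knockdowns that reproduce the expression shifts seen after KSR1 loss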 (primary screen)", "cell system": "human HCT116 colon cancer cells", "knock-down reagent": "siRNA pool against human genes, 50 nM", "measured": "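Six signature mRNAs by branched-DNA multiplex assay, scaled to two housekeeping genes and non-targeting median, log2; matched to mean KSR1 knockdown profile by Pearson correlation and euclidean distance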", "scale": "mean correlation with KSR1 profile: higher = expression change more like KSR1 knockdown", "note": "Here is one part, drawn at random, of about 14,000 deposited reagents. 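Higher correlation or smaller distance means closer resemblance to KSR1 loss; control wells, including KSR1 knockdowns, recur on many plates.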 Further read-outs or replicates are left out here. Not stated in the record: the time to read-out."}
{"gene": "RRM2", "mean correlation with KSR1 profile": 0.135}
{"gene": "BARX2", "mean correlation with KSR1 profile": -0.501}
{"gene": "FBXO4", "mean correlation with KSR1 profile": -0.0296}
{"gene": "DDHD1", "mean correlation with KSR1 profile": 0.784}
{"gene": "SOX11", "mean correlation with KSR1 profile": -0.146}
{"gene": "FRG1", "mean correlation with KSR1 profile": -0.183}
{"gene": "TUBA4A", "mean correlation with KSR1 profile": -0.18}
{"gene": "BTBD3", "mean correlation with KSR1 profile": -0.47}
{"gene": "RFX2", "mean correlation with KSR1 profile": 0.496}
{"gene": "LCORL", "mean correlation with KSR1 profile": 0.144}
{"gene": "RANBP6", "mean correlation with KSR1 profile": 0.14}
{"gene": "PNPLA8", "mean correlation with KSR1 profile": -0.379}
{"gene": "AP2S1", "mean correlation with KSR1 profile": 0.00975}
{"gene": "EEPD1", "mean correlation with KSR1 profile": 0.207}
{"gene": "SLC9A7", "mean correlation with KSR1 profile": 0.655}
{"gene": "ADAM7", "mean correlation with KSR1 profile": -0.612}
{"gene": "AMHR2", "mean correlation with KSR1 profile": 0.534}
{"gene": "IFNA14", "mean correlation with KSR1 profile": 0.445}
{"gene": "RET", "mean correlation with KSR1 profile": 0.37}

Already shown: entries from further up.
{"gene": "AP2S1", "mean correlation with KSR1 profile": 0.00975}
{"gene": "EEPD1", "mean correlation with KSR1 profile": 0.207}
